Results deposited as PubChem BioAssay AID743121 (NCATS, 2013).
Assay: 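Genes whose silencing strengthens cell killing by camptothecin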 (primary screen). Cell system: MDA-MB-231 cells, a human breast cancer line. Knock-down reagent: single siRNA against human genes, 20 nM siRNA (0.8 pmol per well). Time to read-out: 120 h (drug added 48 h after transfection, read 72 h later). Treatment: camptothecin 20 nM (about EC30) for 72 h; vehicle 0.1% DMSO in parallel plates. Measurement: 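CellTiter-Glo ATP signal, scaled to control siRNA as percent viability; sensitisation given as log2 of untreated divided by camptothecin-treated viability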. Scale: log2 vehicle/camptothecin viability: higher = stronger sensitisation to camptothecin; viability with camptothecin: higher = more viable cells. Units: viability with camptothecin in % of control. Rule for the call: 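Active genes have an RSA gene-level p-value below 0.001, computed from the ratios of their separate siRNAs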.
Here is a random part of about 26,000 reagents. 167 of them (0.63%) count as active. 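Calls are per gene from RSA p-values that are not deposited; an individual active-marked siRNA can sensitise only weakly.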 The numbers tell different reagents against one gene apart. Further read-outs or replicates are left out here.

XPA (XPA, DNA damage recognition and repair factor) #1
- log2 vehicle/camptothecin viability: -0.148
- viability with camptothecin: 94.9
- Call: inactive

XPA (XPA, DNA damage recognition and repair factor) #2
- log2 vehicle/camptothecin viability: -0.26
- viability with camptothecin: 118
- Call: inactive

XPA (XPA, DNA damage recognition and repair factor) #3
- log2 vehicle/camptothecin viability: -0.432
- viability with camptothecin: 63.5
- Call: inactive

XPA (XPA, DNA damage recognition and repair factor) #4
- log2 vehicle/camptothecin viability: -0.337
- viability with camptothecin: 75.9
- Call: inactive

KMT5B (lysine methyltransferase 5B) #1
- log2 vehicle/camptothecin viability: -0.254
- viability with camptothecin: 81.5
- Call: inactive

KMT5B (lysine methyltransferase 5B) #2
- log2 vehicle/camptothecin viability: -0.71
- viability with camptothecin: 104
- Call: inactive

KMT5B (lysine methyltransferase 5B) #3
- log2 vehicle/camptothecin viability: -0.198
- viability with camptothecin: 80.9
- Call: inactive

KMT5B (lysine methyltransferase 5B) #4
- log2 vehicle/camptothecin viability: -0.37
- viability with camptothecin: 47.4
- Call: inactive

FCN2 (ficolin 2) #1
- log2 vehicle/camptothecin viability: -0.342
- viability with camptothecin: 30.9
- Call: inactive

FCN2 (ficolin 2) #2
- log2 vehicle/camptothecin viability: -0.201
- viability with camptothecin: 67.9
- Call: inactive

FCN2 (ficolin 2) #3
- log2 vehicle/camptothecin viability: 0.0454
- viability with camptothecin: 87.6
- Call: inactive

FCN2 (ficolin 2) #4
- log2 vehicle/camptothecin viability: 0.274
- viability with camptothecin: 36.4
- Call: inactive

AGT (angiotensinogen) #1
- log2 vehicle/camptothecin viability: -0.186
- viability with camptothecin: 90.9
- Call: inactive

AGT (angiotensinogen) #2
- log2 vehicle/camptothecin viability: -0.197
- viability with camptothecin: 163
- Call: inactive

AGT (angiotensinogen) #3
- log2 vehicle/camptothecin viability: -0.567
- viability with camptothecin: 45
- Call: inactive

AGT (angiotensinogen) #4
- log2 vehicle/camptothecin viability: 0.265
- viability with camptothecin: 60.4
- Call: inactive

MSLN (mesothelin) #1
- log2 vehicle/camptothecin viability: -0.506
- viability with camptothecin: 63
- Call: inactive

MSLN (mesothelin) #2
- log2 vehicle/camptothecin viability: 0.263
- viability with camptothecin: 50.8
- Call: inactive

MSLN (mesothelin) #3
- log2 vehicle/camptothecin viability: 0.414
- viability with camptothecin: 39.6
- Call: inactive

MSLN (mesothelin) #4
- log2 vehicle/camptothecin viability: -0.261
- viability with camptothecin: 21.1
- Call: inactive

ADH6 (alcohol dehydrogenase 6 (class V)) #1
- log2 vehicle/camptothecin viability: 0.0794
- viability with camptothecin: 94.3
- Call: inactive

ADH6 (alcohol dehydrogenase 6 (class V)) #2
- log2 vehicle/camptothecin viability: -0.131
- viability with camptothecin: 86.6
- Call: inactive

ADH6 (alcohol dehydrogenase 6 (class V)) #3
- log2 vehicle/camptothecin viability: -0.129
- viability with camptothecin: 88.4
- Call: inactive

CA9 (carbonic anhydrase 9) #1
- log2 vehicle/camptothecin viability: 0.136
- viability with camptothecin: 84.4
- Call: inactive

CA9 (carbonic anhydrase 9) #2
- log2 vehicle/camptothecin viability: -0.242
- viability with camptothecin: 16.2
- Call: inactive

CA9 (carbonic anhydrase 9) #3
- log2 vehicle/camptothecin viability: 0.445
- viability with camptothecin: 39.1
- Call: inactive
